PubChem BioAssay AID1259424 | University of Nebraska Medical Center | 2018
This is one part, drawn at random, of about 14,000 reagents. 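Higher correlation or smaller distance means closer resemblance to KSR1 loss; control wells, including KSR1 knockdowns, recur on many plates.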 Not all columns of the deposit are shown. Reagent sequences are not shown. Not given: the time to read-out.

Aim: 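Find knockdowns that reproduce the expression shifts seen after KSR1 loss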 (primary screen)
System: human HCT116 colon cancer cells
Reagents: siRNA pool against human genes, 50 nM
Read-out: 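Log2 levels of six mRNAs (branched-DNA multiplex), adjusted by two reference genes and the non-targeting median, then scored against the average KSR1 knockdown pattern as Pearson r and euclidean distance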
Direction: mean correlation with KSR1 profile: higher = expression change more like KSR1 knockdown

target gene | mean correlation with KSR1 profile
AKAP10 | -0.675
IGSF21 | 0.395
CAMK2N1 | 0.381
GRM2 | 0.81
ZNF84 | 0.661
TRIM45 | 0.489
SLC24A1 | -0.277
NUBP1 | 0.421
TTLL4 | -0.227
MT1X | -0.173
VPS29 | -0.705
TMEM138 | -0.0879
LRRC49 | -0.523
WDFY1 | 0.205
IP6K3 | -0.21
RBM15 | 0.295
OR2B6 | -0.101
CLEC3B | 0.575
HHAT | -0.168
THTPA | -0.0161
